# Measurements published in the supplement of paper PMC8728848.
# Some of the results follow.
# B1: Agalectin (Anopheles gambiae) (protein)
# chain: MSNRPFTAKFPRYPENGDEVFIRGKLKDDAKSFSVNFCLPRPAQVAEHQTPPYIALHFKTIYDERDDTSRVVLNWKNLQWQQEEVLDNYWHVDRSQTFRVVFRLHEDCIKVFVNSVDHPPDYQFPVQLPLDQIESIELWDDVEHVEEISFRYDNGNSY
# Experiments:
# Experiment in all cases: glycan array binding signal (z-score within array); higher = stronger binding
# Conditions in all cases: glycan notation: IUPAC condensed, linker removed
# [1] = molecular target: GlcNAc(b1-2)Gal(b1-3)GalNAc
# Method in brief: (§1)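 From the Consortium for Functional Glycomics database, 3228 arrays were curated, keeping only those whose protein sequence was available. Binding is given as a within-array Z-score averaged across arrays sharing a protein sequence and across linkers. Negative Z-scores can be read as non-binding.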
# [2] = molecular target: GlcNAc(b1-2)Man(a1-3)[GlcNAc(b1-2)Man(a1-6)]Man(b1-4)GlcNAc(b1-4)GlcNAc
# Method in brief: as §1
# [3] = molecular target: GlcNAc(b1-2)Man(a1-3)[GlcNAc(b1-2)Man(a1-6)]Man(b1-4)GlcNAc(b1-4)[Fuc(a1-6)]GlcNAc
# Method in brief: as §1
# [4] = molecular target: GlcNAc(b1-2)Man(a1-3)[GlcNAc(b1-4)][GlcNAc(b1-2)Man(a1-6)]Man(b1-4)GlcNAc(b1-4)GlcNAc
# Method in brief: as §1
# [5] = molecular target: GlcNAc(b1-2)Man(a1-3)[GlcNAc(b1-4)][GlcNAc(b1-2)Man(a1-6)]Man(b1-4)GlcNAc(b1-4)[Fuc(a1-6)]GlcNAc
# Method in brief: as §1
# [6] = molecular target: GlcNAc(b1-2)[GlcNAc(b1-4)]Man(a1-3)[GlcNAc(b1-2)Man(a1-6)]Man(b1-4)GlcNAc(b1-4)GlcNAc
# Method in brief: as §1
# [7] = molecular target: GlcNAc(b1-2)[GlcNAc(b1-4)]Man(a1-3)[GlcNAc(b1-4)][GlcNAc(b1-2)Man(a1-6)]Man(b1-4)GlcNAc(b1-4)GlcNAc
# Method in brief: as §1
# [8] = molecular target: GlcNAc(b1-2)[GlcNAc(b1-4)]Man(a1-3)[GlcNAc(b1-4)][GlcNAc(b1-2)[GlcNAc(b1-6)]Man(a1-6)]Man(b1-4)GlcNAc(b1-4)GlcNAc
# Method in brief: as §1
# [9] = molecular target: GlcNAc(b1-2)[GlcNAc(b1-4)]Man(a1-3)[GlcNAc(b1-4)][GlcNAc(b1-2)[GlcNAc(b1-6)]Man(a1-6)]Man(b1-4)GlcNAc(b1-4)[Fuc(a1-6)]GlcNAc
# Method in brief: as §1
# [10] = molecular target: GlcNAc(b1-2)[GlcNAc(b1-6)]Man(a1-6)[GlcNAc(b1-2)Man(a1-3)]Man(b1-4)GlcNAc(b1-4)GlcNAc
# Method in brief: as §1
# [11] = molecular target: GlcNAc(b1-2)[GlcNAc(b1-6)]Man(a1-6)[GlcNAc(b1-2)Man(a1-3)]Man(b1-4)GlcNAc(b1-4)[Fuc(a1-6)]GlcNAc
# Method in brief: as §1
# [12] = molecular target: GlcNAc(b1-2)[GlcNAc(b1-6)]Man(a1-6)[GlcNAc(b1-4)][GlcNAc(b1-2)Man(a1-3)]Man(b1-4)GlcNAc(b1-4)GlcNAc
# Method in brief: as §1
# GlcNAc(b1-3)Fuc = molecular target: GlcNAc(b1-3)Fuc
# Method in brief: as §1
# GlcNAc(b1-3)Gal = molecular target: GlcNAc(b1-3)Gal
# Method in brief: as §1
# [13] = molecular target: GlcNAc(b1-3)Gal(b1-3)GalNAc
# Method in brief: as §1
# GlcNAc(b1-3)Gal(b1-4)Glc = molecular target: GlcNAc(b1-3)Gal(b1-4)Glc
# Method in brief: as §1
# [14] = molecular target: GlcNAc(b1-3)Gal(b1-4)GlcNAc
# Method in brief: as §1
# [15] = molecular target: GlcNAc(b1-3)Gal(b1-4)GlcNAc(b1-2)Man(a1-3)[GlcNAc(b1-3)Gal(b1-4)GlcNAc(b1-2)Man(a1-6)]Man(b1-4)GlcNAc(b1-4)GlcNAc
# Method in brief: as §1
# [16] = molecular target: GlcNAc(b1-3)Gal(b1-4)GlcNAc(b1-2)Man(a1-3)[GlcNAc(b1-3)Gal(b1-4)GlcNAc(b1-2)Man(a1-6)]Man(b1-4)GlcNAc(b1-4)[Fuc(a1-6)]GlcNAc
# Method in brief: as §1
# [17] = molecular target: GlcNAc(b1-3)Gal(b1-4)GlcNAc(b1-2)[GlcNAc(b1-3)Gal(b1-4)GlcNAc(b1-6)]Man(a1-6)[GlcNAc(b1-3)Gal(b1-4)GlcNAc(b1-2)Man(a1-3)]Man(b1-4)GlcNAc(b1-4)GlcNAc
# Method in brief: as §1
# [18] = molecular target: GlcNAc(b1-3)Gal(b1-4)GlcNAc(b1-3)Gal(b1-4)GlcNAc
# Method in brief: as §1
# [19] = molecular target: GlcNAc(b1-3)Gal(b1-4)GlcNAc(b1-3)Gal(b1-4)GlcNAc(b1-2)Man(a1-3)[GlcNAc(b1-3)Gal(b1-4)GlcNAc(b1-3)Gal(b1-4)GlcNAc(b1-2)Man(a1-6)]Man(b1-4)GlcNAc(b1-4)GlcNAc
# Method in brief: as §1
# [20] = molecular target: GlcNAc(b1-3)Gal(b1-4)GlcNAc(b1-3)Gal(b1-4)GlcNAc(b1-2)Man(a1-3)[GlcNAc(b1-3)Gal(b1-4)GlcNAc(b1-3)Gal(b1-4)GlcNAc(b1-2)Man(a1-6)]Man(b1-4)GlcNAc(b1-4)[Fuc(a1-6)]GlcNAc
# Method in brief: as §1
# [21] = molecular target: GlcNAc(b1-3)Gal(b1-4)GlcNAc(b1-3)Gal(b1-4)GlcNAc(b1-2)[GlcNAc(b1-3)Gal(b1-4)GlcNAc(b1-3)Gal(b1-4)GlcNAc(b1-6)]Man(a1-6)[GlcNAc(b1-3)Gal(b1-4)GlcNAc(b1-3)Gal(b1-4)GlcNAc(b1-2)Man(a1-3)]Man(b1-4)GlcNAc(b1-4)[Fuc(a1-6)]GlcNAc
# Method in brief: as §1
# [22] = molecular target: GlcNAc(b1-3)Gal(b1-4)GlcNAc(b1-3)Gal(b1-4)GlcNAc(b1-3)Gal(b1-4)GlcNAc(b1-2)Man(a1-3)[GlcNAc(b1-3)Gal(b1-4)GlcNAc(b1-3)Gal(b1-4)GlcNAc(b1-3)Gal(b1-4)GlcNAc(b1-2)Man(a1-6)]Man(b1-4)GlcNAc(b1-4)GlcNAc
# Method in brief: as §1
# [23] = molecular target: GlcNAc(b1-3)Gal(b1-4)GlcNAc(b1-3)Gal(b1-4)GlcNAc(b1-3)Gal(b1-4)GlcNAc(b1-2)Man(a1-3)[GlcNAc(b1-3)Gal(b1-4)GlcNAc(b1-3)Gal(b1-4)GlcNAc(b1-3)Gal(b1-4)GlcNAc(b1-2)Man(a1-6)]Man(b1-4)GlcNAc(b1-4)[Fuc(a1-6)]GlcNAc
# Method in brief: as §1
# [24] = molecular target: GlcNAc(b1-3)Gal(b1-4)GlcNAc(b1-3)Gal(b1-4)GlcNAc(b1-3)Gal(b1-4)GlcNAc(b1-2)[GlcNAc(b1-3)Gal(b1-4)GlcNAc(b1-3)Gal(b1-4)GlcNAc(b1-3)Gal(b1-4)GlcNAc(b1-6)]Man(a1-6)[GlcNAc(b1-3)Gal(b1-4)GlcNAc(b1-3)Gal(b1-4)GlcNAc(b1-3)Gal(b1-4)GlcNAc(b1-2)Man(a1-3)]Man(b1-4)GlcNAc(b1-4)[Fuc(a1-6)]GlcNAc
# Method in brief: as §1
# [25] = molecular target: GlcNAc(b1-3)Gal(b1-4)GlcNAc(b1-3)Gal(b1-4)GlcNAc(b1-3)Gal(b1-4)GlcNAc(b1-3)Gal(b1-4)GlcNAc(b1-2)Man(a1-3)[GlcNAc(b1-3)Gal(b1-4)GlcNAc(b1-3)Gal(b1-4)GlcNAc(b1-3)Gal(b1-4)GlcNAc(b1-3)Gal(b1-4)GlcNAc(b1-2)Man(a1-6)]Man(b1-4)GlcNAc(b1-4)GlcNAc
# Method in brief: as §1
# [26] = molecular target: GlcNAc(b1-3)Gal(b1-4)GlcNAc(b1-3)Gal(b1-4)GlcNAc(b1-3)Gal(b1-4)GlcNAc(b1-3)Gal(b1-4)GlcNAc(b1-2)Man(a1-3)[GlcNAc(b1-3)Gal(b1-4)GlcNAc(b1-3)Gal(b1-4)GlcNAc(b1-3)Gal(b1-4)GlcNAc(b1-3)Gal(b1-4)GlcNAc(b1-2)Man(a1-6)]Man(b1-4)GlcNAc(b1-4)[Fuc(a1-6)]GlcNAc
# Method in brief: as §1
# [27] = molecular target: GlcNAc(b1-3)Gal(b1-4)GlcNAc(b1-3)Gal(b1-4)GlcNAc(b1-3)Gal(b1-4)GlcNAc(b1-3)Gal(b1-4)GlcNAc(b1-2)[GlcNAc(b1-3)Gal(b1-4)GlcNAc(b1-3)Gal(b1-4)GlcNAc(b1-3)Gal(b1-4)GlcNAc(b1-3)Gal(b1-4)GlcNAc(b1-6)]Man(a1-6)[GlcNAc(b1-3)Gal(b1-4)GlcNAc(b1-3)Gal(b1-4)GlcNAc(b1-3)Gal(b1-4)GlcNAc(b1-3)Gal(b1-4)GlcNAc(b1-2)Man(a1-3)]Man(b1-4)GlcNAc(b1-4)[Fuc(a1-6)]GlcNAc
# Method in brief: as §1
# [28] = molecular target: GlcNAc(b1-3)Gal(b1-4)GlcNAc(b1-3)Gal(b1-4)GlcNAc(b1-3)GalNAc
# Method in brief: as §1
# [29] = molecular target: GlcNAc(b1-3)Gal(b1-4)GlcNAc(b1-3)GalNAc
# Method in brief: as §1
# [30] = molecular target: GlcNAc(b1-3)Gal(b1-4)GlcNAc(b1-3)[GlcNAc(b1-3)Gal(b1-4)GlcNAc(b1-3)]GalNAc
# Method in brief: as §1
# [31] = molecular target: GlcNAc(b1-3)Gal(b1-4)GlcNAc(b1-6)[Gal(b1-3)]GalNAc
# Method in brief: as §1
# [32] = molecular target: GlcNAc(b1-3)Gal(b1-4)GlcNAc(b1-6)[GlcNAc(b1-3)Gal(b1-3)]GalNAc
# Method in brief: as §1
# [33] = molecular target: GlcNAc(b1-3)Gal(b1-4)GlcNAc(b1-6)[GlcNAc(b1-3)]Gal(b1-4)GlcNAc
# Method in brief: as §1
# GlcNAc(b1-3)GalNAc = molecular target: GlcNAc(b1-3)GalNAc
# Method in brief: as §1
# GlcNAc(b1-3)Man = molecular target: GlcNAc(b1-3)Man
# Method in brief: as §1
# [34] = molecular target: GlcNAc(b1-3)[GlcNAc(b1-4)][GlcNAc(b1-6)]GlcNAc
# Method in brief: as §1
# [35] = molecular target: GlcNAc(b1-3)[GlcNAc(b1-6)]Gal(b1-4)GlcNAc
# Method in brief: as §1
# [36] = molecular target: GlcNAc(b1-3)[GlcNAc(b1-6)]GalNAc
# Method in brief: as §1
# [37] = molecular target: GlcNAc(b1-4)Gal(b1-4)GlcNAc
# Method in brief: as §1
# GlcNAc(b1-4)GlcNAc = molecular target: GlcNAc(b1-4)GlcNAc
# Method in brief: as §1
# [38] = molecular target: GlcNAc(b1-4)GlcNAc(b1-4)GlcNAc
# Method in brief: as §1
# [39] = molecular target: GlcNAc(b1-4)GlcNAc(b1-4)GlcNAc(b1-4)GlcNAc(b1-4)GlcNAc
# Method in brief: as §1
binder,measurement,setting,value
B1,glycan array binding signal (z-score),[1],-1.34
same,glycan array binding signal (z-score),[2],-0.372
same,glycan array binding signal (z-score),[3],-0.122
same,glycan array binding signal (z-score),[4],-1.65
same,glycan array binding signal (z-score),[5],-0.859
same,glycan array binding signal (z-score),[6],0.194
same,glycan array binding signal (z-score),[7],-0.52
same,glycan array binding signal (z-score),[8],-0.389
same,glycan array binding signal (z-score),[9],-0.443
same,glycan array binding signal (z-score),[10],-0.661
same,glycan array binding signal (z-score),[11],-0.445
same,glycan array binding signal (z-score),[12],-0.563
same,glycan array binding signal (z-score),GlcNAc(b1-3)Fuc,-0.403
same,glycan array binding signal (z-score),GlcNAc(b1-3)Gal,-0.156
same,glycan array binding signal (z-score),[13],-0.361
same,glycan array binding signal (z-score),GlcNAc(b1-3)Gal(b1-4)Glc,-0.291
same,glycan array binding signal (z-score),[14],0.151
same,glycan array binding signal (z-score),[15],-0.912
same,glycan array binding signal (z-score),[16],0.28
same,glycan array binding signal (z-score),[17],1.33
same,glycan array binding signal (z-score),[18],-0.107
same,glycan array binding signal (z-score),[19],0.942
same,glycan array binding signal (z-score),[20],1.95
same,glycan array binding signal (z-score),[21],3.5
same,glycan array binding signal (z-score),[22],1.26
same,glycan array binding signal (z-score),[23],-0.198
same,glycan array binding signal (z-score),[24],0.199
same,glycan array binding signal (z-score),[25],3.07
same,glycan array binding signal (z-score),[26],1.25
same,glycan array binding signal (z-score),[27],2.63
same,glycan array binding signal (z-score),[28],-0.362
same,glycan array binding signal (z-score),[29],0.237
same,glycan array binding signal (z-score),[30],1.66
same,glycan array binding signal (z-score),[31],-0.279
same,glycan array binding signal (z-score),[32],-0.092
same,glycan array binding signal (z-score),[33],-0.125
same,glycan array binding signal (z-score),GlcNAc(b1-3)GalNAc,-1.12
same,glycan array binding signal (z-score),GlcNAc(b1-3)Man,-0.455
same,glycan array binding signal (z-score),[34],0.058
same,glycan array binding signal (z-score),[35],0.294
same,glycan array binding signal (z-score),[36],0.051
same,glycan array binding signal (z-score),[37],-0.313
same,glycan array binding signal (z-score),GlcNAc(b1-4)GlcNAc,0.095
same,glycan array binding signal (z-score),[38],0.138
same,glycan array binding signal (z-score),[39],-0.567

# 9 entries from above, tab-delimited.
binder	measurement	setting	value
B1	glycan array binding signal (z-score)	[5]	-0.859
same	glycan array binding signal (z-score)	[10]	-0.661
same	glycan array binding signal (z-score)	GlcNAc(b1-3)Fuc	-0.403
same	glycan array binding signal (z-score)	[14]	0.151
same	glycan array binding signal (z-score)	[16]	0.28
same	glycan array binding signal (z-score)	[18]	-0.107
same	glycan array binding signal (z-score)	[28]	-0.362
same	glycan array binding signal (z-score)	[36]	0.051
same	glycan array binding signal (z-score)	[39]	-0.567
